From doi:10.1101/2021.07.16.452648
No constants are given. Whether binding was seen depends on the method and setting. Binding seen in cells or lysates may run through a third protein. Binding calls can cover weak binding; strength is not graded here.

Protein sequences, listed by entry. Tags and fused reporters are not part of them. Lines headed by an entry give the natural chain unless they say otherwise; changes in a name come on top.
UniProt Q9H3Z4: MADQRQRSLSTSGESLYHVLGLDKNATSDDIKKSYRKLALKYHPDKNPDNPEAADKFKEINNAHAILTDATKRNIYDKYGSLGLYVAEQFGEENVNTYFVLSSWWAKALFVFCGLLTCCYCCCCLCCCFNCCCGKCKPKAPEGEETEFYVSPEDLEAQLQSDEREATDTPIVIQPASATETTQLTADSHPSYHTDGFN

Target: CSPα ΔJ-SBP-FLAG (UniProt Q9H3Z4)
Experiment: co-IP

binding: binds
Substance: CD98hc (endogenous) (from UniProt P08195 1-529)
